# From patent US20190314361A1 (Athenex Therapeutics Limited, priority 2018, published 2019)
# Read-outs that look alike come from different tables or passages of the source. At least one read-out could not be matched to a standard name with certainty.
# Conditions: dogs, single oral dose paclitaxel 6 mg/kg with Compound A 3 mg/kg
smiles,measurement,setting,value
"CC(=O)O[C@H]1C(=O)[C@@]2(C)[C@H]([C@H](OC(=O)c3ccccc3)[C@]3(O)C[C@H](OC(=O)[C@H](O)[C@@H](NC(=O)c4ccccc4)c4ccccc4)C(C)=C1C3(C)C)[C@]1(OC(C)=O)CO[C@@H]1C[C@@H]2O [Paclitaxel, 5,20-Epoxy-1,2,4,7,10-13-hexahydroxytax-11-en-9-one-4,10-diacetate 2-benzoate 13-ester with (2R,3S)—N-benzoyl-3-phenylisoserine]",Vd/F,Fasted,57.9 ± 17.4 L
same,Vd/F,Fed,88.0 ± 19.6 L
